Values from PubChem BioAssay AID743121 (NCATS, 2013).
Purpose: 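Partners whose loss is lethal together with topoisomerase I blockade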 (primary screen). Cells: MDA-MB-231 cells, a human breast cancer line. Reagent: single siRNA against human genes, 20 nM siRNA (0.8 pmol per well). Timing: 120 h (drug added 48 h after transfection, read 72 h later). Treatment: camptothecin 20 nM (about EC30) for 72 h; vehicle 0.1% DMSO in parallel plates. Read-out: 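Cell viability by ATP luminescence (CellTiter-Glo) as % of non-targeting siRNA wells, and the log2 ratio of viability without drug over viability with camptothecin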. Reading the numbers: log2 vehicle/camptothecin viability: higher = stronger sensitisation to camptothecin; viability with camptothecin: higher = more viable cells. Rule for the call: 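Active genes have an RSA gene-level p-value below 0.001, computed from the ratios of their separate siRNAs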.
This is an unselected part of about 26,000 reagents tested. Of all reagents, 167 (0.63%) got an active call. 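Calls are per gene from RSA p-values that are not deposited; an individual active-marked siRNA can sensitise only weakly.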 A number with no mark means an inactive call. The numbers tell different reagents against one gene apart. Further read-outs or replicates are left out here. No sequences are given here.

| target | reagent | log2 vehicle/camptothecin viability | viability with camptothecin (% of control) |
| --- | --- | --- | --- |
| DLAT (dihydrolipoamide S-acetyltransferase) | 1 | -0.126 | 93.6 |
| DLAT (dihydrolipoamide S-acetyltransferase) | 2 | 0.06 | 91.3 |
| DLAT (dihydrolipoamide S-acetyltransferase) | 3 | -0.107 | 50.1 |
| DLAT (dihydrolipoamide S-acetyltransferase) | 4 | -0.196 | 120 |
| CDK20 (cyclin dependent kinase 20) | 1 | -0.316 | 101 |
| CDK20 (cyclin dependent kinase 20) | 2 | 0.11 | 41.5 |
| CDK20 (cyclin dependent kinase 20) | 3 | -0.497 | 93.6 |
| CDK20 (cyclin dependent kinase 20) | 4 | 0.046 | 50.1 |
| PRKAR1A | 1 | -0.244 | 107 |
| PRKAR1A | 2 | -0.0443 | 80.3 |
| PRKAR1A | 3 | -0.00437 | 48.1 |
| PRKAR1A | 4 | -0.644 | 65.7 |
| CELA2B (chymotrypsin like elastase 2B) | 1 | 1.26 | 13.6 |
| CELA2B (chymotrypsin like elastase 2B) | 2 | -0.255 | 132 |
| CELA2B (chymotrypsin like elastase 2B) | 3 | -0.349 | 80.3 |
| CELA2B (chymotrypsin like elastase 2B) | 4 | 0.0158 | 14 |
| PTK2 (protein tyrosine kinase 2) | 1 | -0.289 | 88.3 |
| PTK2 (protein tyrosine kinase 2) | 2 | -0.349 | 85.4 |
| PTK2 (protein tyrosine kinase 2) | 3 | -0.317 | 84.5 |
| PTK2 (protein tyrosine kinase 2) | 4 | 0.429 | 37.5 |
| SERPINI2 (serpin family I member 2) | 1 | -0.516 | 93.5 |
| SERPINI2 (serpin family I member 2) | 2 | -0.171 | 65.5 |
| SERPINI2 (serpin family I member 2) | 3 | -0.0922 | 58.5 |
| SERPINI2 (serpin family I member 2) | 4 | -0.113 | 103 |
| ERG (ETS transcription factor ERG) | 1 | 0.0918 | 70.7 |
| ERG (ETS transcription factor ERG) | 2 | 0.773 | 47.1 |
| ERG (ETS transcription factor ERG) | 3 | -1.05 | 55.1 |
| ERG (ETS transcription factor ERG) | 4 | 0.00419 | 82.5 |
| CLN3 (CLN3 lysosomal/endosomal transmembrane protein, battenin) | 1 | -0.0222 | 97.4 |
| CLN3 (CLN3 lysosomal/endosomal transmembrane protein, battenin) | 2 | 0.108 | 59.3 |
| CLN3 (CLN3 lysosomal/endosomal transmembrane protein, battenin) | 3 | -0.464 | 42.1 |
| CLN3 (CLN3 lysosomal/endosomal transmembrane protein, battenin) | 4 | -0.202 | 94.2 |
| PLXDC2 (plexin domain containing 2) | 1 | -0.344 | 58.9 |
| PLXDC2 (plexin domain containing 2) | 2 | -0.0659 | 90.3 |
| PLXDC2 (plexin domain containing 2) | 3 | -0.453 | 117 |
| GPR55 (G protein-coupled receptor 55) | 1 | 1.18 | 47.1 |
| GPR55 (G protein-coupled receptor 55) | 2 | -0.0692 | 97.9 |
| GPR55 (G protein-coupled receptor 55) | 3 | 0.823 | 35.8 |
| GPR55 (G protein-coupled receptor 55) | 4 | -0.602 | 98 |
| PPP1R3C (protein phosphatase 1 regulatory subunit 3C) | 1 | -0.22 | 99.4 |
| PPP1R3C (protein phosphatase 1 regulatory subunit 3C) | 2 | -0.181 | 95.9 |
| PPP1R3C (protein phosphatase 1 regulatory subunit 3C) | 3 | -0.423 | 83.4 |
| PPP1R3C (protein phosphatase 1 regulatory subunit 3C) | 4 | -0.065 | 85.9 |
| MAGI2 | 1 | 0.277 | 61 |
| MAGI2 | 2 | -0.402 | 114 |
| MAGI2 | 3 | -0.425 | 80.6 |
| MAGI2 | 4 | -0.404 | 51.3 |
| MAGI2 | 5 | -0.313 | 119 |
| MAGI2 | 6 | -0.409 | 44.2 |
| NUCLEOLIN (nucleolin multifunctional protein) | 1 | -0.265 | 59.2 |
| NUCLEOLIN (nucleolin multifunctional protein) | 2 | -0.283 | 63.8 |
| NUCLEOLIN (nucleolin multifunctional protein) | 3 | -0.432 | 79.2 |
| NUCLEOLIN (nucleolin multifunctional protein) | 4 | -0.255 | 59.6 |
| UCHL5 (ubiquitin C-terminal hydrolase L5) | 1 | 0.17 | 81.4 |
| UCHL5 (ubiquitin C-terminal hydrolase L5) | 2 | -0.259 | 24.9 |
| UCHL5 (ubiquitin C-terminal hydrolase L5) | 3 | -0.108 | 56.1 |
| UCHL5 (ubiquitin C-terminal hydrolase L5) | 4 | 0.39 | 77 |
| NSUN4 (NOP2/Sun RNA methyltransferase 4) | 1 | -0.178 | 75.5 |
| NSUN4 (NOP2/Sun RNA methyltransferase 4) | 2 | -0.689 | 81.7 |
| NSUN4 (NOP2/Sun RNA methyltransferase 4) | 3 | -0.414 | 68.2 |
| NSUN4 (NOP2/Sun RNA methyltransferase 4) | 4 | 0.138 | 101 |
| SIGLEC10 (sialic acid binding Ig like lectin 10) | 1 | 0.0228 | 74.8 |
| SIGLEC10 (sialic acid binding Ig like lectin 10) | 2 | -0.469 | 81 |
| SIGLEC10 (sialic acid binding Ig like lectin 10) | 3 | -0.0683 | 124 |
| TBC1D23 (TBC1 domain family member 23) | 1 | -0.247 | 44.5 |
| TBC1D23 (TBC1 domain family member 23) | 2 | -0.00799 | 71 |
| TBC1D23 (TBC1 domain family member 23) | 3 | 0.0778 | 84.5 |
| TBC1D23 (TBC1 domain family member 23) | 4 | 0.0386 | 53.4 |
| AGO3 (argonaute RISC catalytic component 3) | 1 | -0.458 | 77.2 |
| AGO3 (argonaute RISC catalytic component 3) | 2 | -0.478 | 46.6 |
| AGO3 (argonaute RISC catalytic component 3) | 3 | -0.0503 | 78 |
| AGO3 (argonaute RISC catalytic component 3) | 4 | -0.0923 | 99.1 |
| FZD9 (frizzled class receptor 9) | 1 | -0.0489 | 105 |
| FZD9 (frizzled class receptor 9) | 2 | 0.142 | 104 |
| FZD9 (frizzled class receptor 9) | 3 | -0.239 | 118 |
| FZD9 (frizzled class receptor 9) | 4 | -0.148 | 35.8 |
| PI4KA (phosphatidylinositol 4-kinase alpha) | 1 | -0.29 | 88.5 |
| PI4KA (phosphatidylinositol 4-kinase alpha) | 2 | -0.245 | 58.6 |
| PI4KA (phosphatidylinositol 4-kinase alpha) | 3 | -0.757 | 82.7 |
| PI4KA (phosphatidylinositol 4-kinase alpha) | 4 | -0.272 | 73.3 |
| XRCC2 (X-ray repair cross complementing 2) | 1 | -0.0863 | 95 |
| XRCC2 (X-ray repair cross complementing 2) | 2 | -0.0567 | 96.4 |
| XRCC2 (X-ray repair cross complementing 2) | 3 | -0.325 | 110 |
| PHF20 (PHD finger protein 20) | 1 | 0.0353 | 102 |
| PHF20 (PHD finger protein 20) | 2 | -0.293 | 50.4 |
| PHF20 (PHD finger protein 20) | 3 | -0.348 | 75.9 |
| CRAMP1 (cramped chromatin regulator 1) | 1 | 0.0141 | 88.7 |
| CRAMP1 (cramped chromatin regulator 1) | 2 | -1.48 | 12.5 |
| CRAMP1 (cramped chromatin regulator 1) | 3 | -0.105 | 45.3 |
| CRAMP1 (cramped chromatin regulator 1) | 4 | -0.389 | 58.3 |

Individual results from above.
Value for PRKAR1A #1 under “viability with camptothecin (% of control)”: 107
Under “log2 vehicle/camptothecin viability”, PLXDC2 (plexin domain containing 2) #2 reads -0.0659
GPR55 (G protein-coupled receptor 55) #1, viability with camptothecin (% of control): 47.1
PI4KA (phosphatidylinositol 4-kinase alpha) #3, log2 vehicle/camptothecin viability → -0.757
For “viability with camptothecin (% of control)”, PPP1R3C (protein phosphatase 1 regulatory subunit 3C) #1 shows 99.4
For “log2 vehicle/camptothecin viability”, GPR55 (G protein-coupled receptor 55) #4 is entered as -0.602
